The target in assay [1] is cynoADAM9-His (His peptide-tagged soluble cynoADAM9) (cynomolgus monkey). The experiment in a line: ELISA on cynoADAM9-His captured by anti-His antibody.
The target is the same in assay [2]. Kind of assay: ELISA (RLU): cynoADAM9-His (1 µg/mL) captured by plate-coated anti-His antibody, serial dilutions of the antibody, about 0.03 to 1 µg/ml. A general note: ELISA stands for enzyme-linked immunosorbent assay.

Changes are numbered by the printed parent chain. These are yes or no findings as the source states them, for the method shown. A result given as binding can be weak or reduced; the word gives no strength.

B1: hMAB-A (2J.2) (antibody, V domains shown)
VH: EVQLVESGGGLVKPGGSLRLSCAASGFTFSSYWMHWVRQAPGKGLEWVGEIIPIFGHTNYNEKFKSRFTISLDNSKNTLYLQMGSLRAEDTAVYYCARGGYYYYYNSGTLDYWGQGTTVTVSS
VL: DIVMTQSPDSLAVSLGERATISCKASQSVDYSGDSYMNWYQQKPGQPPKLLIYAASDLESGIPARFSGSGSGTDFTLTISSLEPEDFATYYCQQSHEDPFTFGQGTKLEIK
On to B1, for which the binding result in assay [1] and in assay [2] was “binds” each time.

B2: hMAB-A (2E.2) (antibody, V domains shown)
VH: B1 VH with Y105D, N106S, S107N, G108A, T109V
VL: B1 VL
For B2, the binding result in assay [1] and in assay [2] was “binds” each time.

B3: hMAB-A (2B.2) (antibody, V domains shown)
VH: B1 VH with Y105I, N106G, S107K, T109V
VL: B1 VL
For B3, the binding result in assay [1] and in assay [2] was “binds” in each case.

B4: hMAB-A (2F.2) (antibody, V domains shown)
VH: B1 VH with Y105F, N106H
VL: B1 VL
For B4, the binding entry in assay [1] and in assay [2] was “binds” throughout.

B5: hMAB-A (2C.2) (antibody, V domains shown)
VH: B1 VH with Y105P, N106R, S107F, T109W
VL: B1 VL
With B5, the binding result in assay [1] and in assay [2] was “binds” each time.

B6: hMAB-A (2A.2) (antibody, V domains shown)
VH: B1 VH with Y105F
VL: B1 VL
For B6, the binding entry in assay [1] and in assay [2] was “binds” throughout.

B7: hMAB-A (2D.2) (antibody, V domains shown)
VH: B1 VH with Y105T, N106G, S107K, T109V
VL: B1 VL
As for B7, the binding entry in assay [1] and in assay [2] was “binds” in each case.

B8: hMAB-A (2H.2) (antibody, V domains shown)
VH: B1 VH with Y105G, N106G, T109V
VL: B1 VL
Consider B8, for which the binding entry in assay [1] and in assay [2] was “binds” throughout.

B9: hMAB-A (2G.2) (antibody, V domains shown)
VH: B1 VH with Y105F, S107K, G108A, T109V
VL: B1 VL
Consider B9, for which the binding entry in assay [1] and in assay [2] was “binds” throughout.

The values are drawn from patent US20250115676A1.
